Weaker means in comparison with the reference protein, sequence or condition of that experiment.
Tested on: CENP-T/CENP-Wmut complex CENP-W R19A,K23A,R24A,R34A,R87A (Homo sapiens)
Assay: EMSA
Conditions: reduced versus wild-type complex; residual binding attributed to CENP-T; purified recombinant protein; protein details: 6xHis-CENP-T, untagged CENP-W; label: biotin

Chains of the proteins cited; added tags and fusions are not shown. Chains listed by the source or under a name are the forms on record and can include a tag or linker.
CENP-T/CENP-Wmut complex CENP-W R19A,K23A,R24A,R34A,R87A (Homo sapiens), one chain, as listed by the source R19A K23A R24A R34A R87A, chain 2 of 2: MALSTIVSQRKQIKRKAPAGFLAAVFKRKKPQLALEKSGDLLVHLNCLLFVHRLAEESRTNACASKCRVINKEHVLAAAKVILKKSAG

“CCTTTGAGGCCTTCGTTGGA (double strand) [alpha-satellite 20 bp probe (bp 21-40)]”: binds more weakly.

Reference: patent publication US20130288364
